Results are given in words; binding and its absence hold for the method and conditions named. Some results given as binding are weak or reduced against the parent protein; the word gives no strength.
Key:
[1] = target: recombinant uPAR-Biotin (human) (UniProt Q03405); experiment: BLItz, uPAR-Biotin on streptavidin sensor, VH 3 at 500 nM, first association step of the competition run
[2] = target: recombinant uPAR-Biotin (human) (UniProt Q03405); experiment: summary of the example (BLItz / ELISA)

Amino acid sequences for entries named in this document (tags omitted). Residues count along the entry.
UniProt Q03405, residues 23-303: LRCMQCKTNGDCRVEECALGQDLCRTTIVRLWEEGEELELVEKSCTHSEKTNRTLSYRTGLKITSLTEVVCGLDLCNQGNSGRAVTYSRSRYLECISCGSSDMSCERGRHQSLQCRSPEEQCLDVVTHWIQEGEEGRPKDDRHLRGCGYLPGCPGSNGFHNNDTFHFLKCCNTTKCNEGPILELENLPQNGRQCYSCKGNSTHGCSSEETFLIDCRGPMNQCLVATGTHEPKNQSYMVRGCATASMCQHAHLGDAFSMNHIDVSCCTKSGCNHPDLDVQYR

B1: VH 3 (VHH)
VHH: EVQLVESGGGLVQPGGSLRLSCAASGFTFSRYWMSWVRQAPGKALEWIGEINHSGSTNYNPSLKSLVTISRDNSKNTLYLQMNSLRAEDTATYYCARSLVPALSYYYYYGMDVWGQGTTVTVSS
[1]
  binding: binds
[2]
  binding: binds

— US20240417485A1
